According to PubChem BioAssay (NCATS):
The list shows a part of the results. Further columns of the screen follow, without active or inactive calls. The list favours compounds with an active or inconclusive main result. For some assays here: Potencies come from curve fits of mixed quality, noted in brackets.

Columns and labels:
[1] = Validation of Assay for Modulators of Lamin A Splicing (AID 1459); details: Lamin A splicing dual RFP/GFP fluorescence reporter, ratio
How it was run: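 Splicing correction read as GFP (500-530 nm) over DsRed2 (575-640 nm) object intensity after 48 h compound exposure of reporter HeLa S3 clones (600 cells/well, 2% FBS medium); ancitabine and cycloheximide titrations, 0.5% DMSO as vehicle.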

[2] = qHTS Assay for Lipid Storage Modulators (AID 1519); details: Drosophila S3 cells, BODIPY lipid droplet/cell ratio, laser cytometry, cells loaded with oleic acid
How it was run: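 Cells seeded at 5,000 per well were treated with compounds over a concentration series and loaded with oleic acid (400 uM, as added). Lipid droplet fluorescence (488 nm excitation, 500-530 nm channel) was read by laser-scanning cytometry and normalized to 20 uM Triacsin C.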

[3] = qHTS Assay for Modulators of Human Peripheral Myelin Protein 22 (PMP22) Expression/Activity (AID 1967); details: Cell-based PMP22 reporter, dual-color luciferase ratio
How it was run: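 Readout is the corrected green/red luminescence ratio after 24 h compound exposure, normalised to untreated cells (0%). Engineered MSC80 mouse Schwann cells express green luciferase from the mouse Pmp22 promoter and red luciferase from EF-alpha as internal control.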

[4] = qHTS Validation Assay to Find Inhibitors of Chronic Active B-Cell Receptor Signaling (AID 485345); details: ABC-DLBCL cells, chronic BCR signaling reporter
How it was run: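 TMD8 ABC-DLBCL cells with dox-inducible green luciferase–IκBα fusion and red native luciferase; compounds 46 uM–3 nM, 4 h at 37C with doxycycline in 0.5% FBS IMDM. Green/red ratio normalized to basal and 10 uM MG-132.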

[5] = Nrf2 qHTS screen for inhibitors: Validation (AID 493153); details: A549 ARE-Fluc reporter, 18-24 h; AC50: CellTiter-Fluor fluorescence read, measured here: cytotoxicity CellTiter-Fluor AC50; viability change: measured here: cytotoxicity max response
How it was run: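 A549 ARE_Fluc, 5% FBS OPTI-MEM; cpd titration, 18-24 h, 37°C/5% CO2. Read 1: CellTiter-Fluor (Ex 405/Em 525), cytotox. Read 2: luciferase lum, Nrf2 activity.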

[6] = qHTS for identification of novel therapeutic agents for treatment of microphthalmiaassociated transcription factor (MiT) renal cell carcinoma (RCC) (AID 1963991); details: CellTiter-Glo, 48 h; for z-score: stronger effect = lower value
How it was run: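 Three TFE3-fusion RCC lines (UOK109, UOK124, UOK145), 500 cells/well in complete medium, were treated with MIPE 4.0 compounds for 48 hours at 37 C. Viability was by CellTiter-Glo luminescence, normalized to DMSO (100%) and empty wells (0%); curves fitted over 11 concentrations.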

[7] = Cell-based coincidence reporter assay to measure PMP22 gene transcription in S16 Pmp22-F2sN cells - Confirmatory screen (AID 1508646); details: S16 Schwann cells Pmp22-F2sN, dual luciferase, 24 h
How it was run: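 S16 Schwann cells carrying a bioluminescent reporter in the Pmp22 3' UTR (Pmp22-F2sN) were treated with compounds for 24 h at 37C, then lysed; FLuc and then NLuc luminescence were read sequentially with a dual-luciferase kit on a CCD imager.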

[8] = qHTS assay for small molecule antagonists of peroxisome proliferator-activated receptor delta signaling (AID 588535); details: HEK293T PPARd-UAS-bla, beta-lactamase FRET ratio, 18 h; 460 nm channel;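 also: cells co-treated with a PPAR-delta agonist as stimulator during compound exposure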
How it was run: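 Inhibition of PPAR-delta response element-driven beta-lactamase expression is measured in HEK293T cells exposed to a compound titration series for 18 hrs at 37 C. Half-maximal inhibition comes from Hill equation fitting.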

[9] = qHTS assay for small molecule antagonists of vitamin D receptor signaling (AID 588541); details: HEK293T VDR-UAS-bla, beta-lactamase ratio, antagonist mode; measured here: W460 blue channel (cell viability)
[10] = qHTS assay for small molecule agonists of retinoid X receptor alpha signaling (AID 588544); details: HEK293T RXRa-UAS-bla, beta-lactamase reporter, 18 h; 530 nm emission
[11] = A High-Content qHTS Against Drug Library for the Identification of Small Molecules that Inhibit DYT1 Early Onset Primary Dystonia-Associated Cell Pathology (AID 1645839); details: HEK293 Flp-In EGFP-delE TorsinA, punctate imaging, 48 h; measured here: cell count cytotoxicity
How it was run: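 Induced EGFP-delE TorsinA cells are imaged after 48 h of compound treatment. Punctate fusion-protein distribution gives the %pathology value, while nuclei counts flag toxicity. Wild-type EGFP-hTOR1A cells define the normal pattern.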

[12] = NCATS anti-infectives library activity on the primary C. elegans qHTS viability assay (AID 1745855); details: C. elegans worm area imaging
How it was run: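 GFP read-out by 488 nm laser cytometry at day 0, 3 and 7, gated on object perimeter, area and peak intensity, scored viability of PE254-GFP-FLuc worms exposed to compound in S medium with bacterial capsules at 21 °C.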

[13] = measured here: cell count channel max response
[14] = measured here: lipid channel max response
[15] = measured here: red reporter channel AC50, EF-alpha promoter control reporter in MSC80 mouse Schwann cells
[16] = measured here: CBR control luciferase (viability counter)
[17] = measured here: green reporter channel AC50, mouse Pmp22 promoter in mouse Schwann cells
[18] = measured here: FLuc reporter channel
[19] = measured here: CBG/CBR ratio read-out

CCCCCCCCCCCCCCCCCC(=O)OC(CC(=O)O)C[N+](C)(C)C (stereo unspecified)
AC50 ([1]; measured here: RFP channel): 15.8 µM [falling, partial curve] | max response [2, 13]: -37.5% | max response [2, 14]: -36.1% | AC50 [3, 15]: 26.9 µM [rising, partial curve] | AC50 [4, 16]: 2.91 µM [rising, partial curve] | viability change [5]: -5.87%

CC(C)C[C@H](NC(=O)[C@@H](O)[C@H](N)Cc1ccccc1)C(=O)O
AC50 ([1]; measured here: GFP channel): 2.82 µM [rising, full curve, poor fit] | max response [2, 13]: 59.8% | max response [2, 14]: 58.4% | AC50 [3, 15]: 15.1 µM [rising, partial curve] | viability change [5]: -18.9% | z-score ([6]; TFE3-RCC UOK109 viability, measured here: UOK109 Z-AUC): 0.828 | z-score ([6]; TFE3-RCC viability, measured here: UOK124 Z-AUC): 0.283 | AC50 ([6]; TFE3-RCC viability, measured here: UOK124 cell viability): 26.4 µM [falling, partial curve] | z-score ([6]; TFE3-RCC viability, measured here: UOK145 Z-AUC): 0.278 | AC50 ([6]; TFE3-RCC viability, measured here: UOK145 cell viability): 29.6 µM [falling, single point]

CCN1C(=O)C=CC1=O
AC50 ([1]; measured here: GFP channel): 11.2 µM [falling, partial curve] | AC50 [3, 17]: 42.6 µM [falling, full curve] | AC50 [3, 15]: 42.6 µM [falling, partial curve]

CCc1ccc(NC(=O)CN2CCSc3ccc(S(=O)(=O)N4CCCC4)cc32)cc1
AC50 [7, 18]: 7.69 µM [falling, full curve]

CCOc1ccc(CCNc2ncnc3onc(C)c23)cc1OCC
AC50 ([7]; measured here: NLuc reporter channel): 1.93 µM [falling, partial curve, poor fit]

COc1ccc2c(c1)c(CC(=O)O)c(C)n2Cc1ccc(Cl)cc1
AC50 ([1]; measured here: GFP channel): 25.1 µM [rising, partial curve, poor fit] | AC50 [3, 17]: 5.36 µM [rising, full curve, poor fit] | AC50 [3, 15]: 75.7 µM [falling, partial curve, poor fit] | viability change [5]: 1.29%

Cc1ccc(CNC(=O)CSc2c3c(nc4ccc(Cl)cc24)CCCC3)cc1
AC50 [7, 18]: 3.06 µM [falling, full curve, poor fit]

Nc1c(S(=O)(=O)O)cc(Nc2ccc(Nc3nc(Cl)nc(Nc4ccc(S(=O)(=O)O)cc4)n3)c(S(=O)(=O)O)c2)c2c1C(=O)c1ccccc1C2=O
AC50 ([1]; measured here: RFP channel): 25.1 µM [falling, partial curve] | AC50 [3, 17]: 75.7 µM [falling, partial curve] | AC50 [3, 15]: 30.1 µM [falling, partial curve] | AC50 [4, 19]: 23.1 µM [falling, single point] | AC50 [4, 16]: 18.4 µM [falling, single point] | AC50 [5]: 20.6 µM [falling, partial curve, poor fit] | viability change [5]: -25.8%

CCCC(=O)NCCc1c2n(c3ccc(OC)cc13)CCCc1ccccc1-2
AC50 ([1]; measured here: GFP channel): 11.2 µM [rising, partial curve, poor fit] | max response [2, 13]: 52.9% | max response [2, 14]: 57.5% | AC50 [3, 17]: 84.9 µM [falling, single point] | AC50 [3, 15]: 75.7 µM [falling, partial curve] | AC50 [4, 19]: 13 µM [falling, partial curve] | AC50 [4, 16]: 1.46 µM [rising, partial curve] | viability change [5]: -7.15%

CCCc1c(OCCCOc2ccc(OCC(=O)O)cc2)ccc(C(C)=O)c1O
AC50 ([1]; measured here: GFP channel): 22.4 µM [rising, single point] | viability change [5]: -1.1% | max response [8]: 187% | AC50 [9]: 14.1 µM [rising, full curve, poor fit] | max response [10]: 40.7%

Nc1ccn([C@@H]2O[C@H](CO)[C@@H](O)[C@@H]2O)c(=O)n1
AC50 ([1]; measured here: GFP channel): 0.0631 µM [falling, full curve] | max response [2, 13]: 63.1% | max response [2, 14]: 63% | AC50 [3, 17]: 95.3 µM [falling, single point] | AC50 [3, 15]: 10.7 µM [falling, full curve]

CN(C)CCCN1c2ccccc2Sc2ccc(Cl)cc21
AC50 ([1]; measured here: RFP channel): 35.5 µM [falling, single point] | max response [2, 13]: -45% | AC50 ([2]; measured here: cell number channel AC50): 39.8 µM [falling, single point] | max response [2, 14]: -45.8% | AC50 [3, 17]: 42.6 µM [falling, full curve] | AC50 [3, 15]: 42.6 µM [falling, full curve] | AC50 [4, 19]: 25.9 µM [falling, single point] | AC50 [4, 16]: 10.3 µM [falling, partial curve] | AC50 [11]: 3.98 µM [falling, full curve] | AC50 ([12]; day 7, measured here: worm number): 25.8 µM [falling, single point] | AC50 ([12]; day 7, measured here: worm area, day 3): 25.8 µM [falling, single point]

CCCCCCCCCCCCCCCCCCOC[C@H](COP(=O)([O-])OCC[N+](C)(C)C)OC
AC50 ([1]; measured here: GFP channel): 35.5 µM [rising, single point] | AC50 [4, 16]: 25.9 µM [rising, single point] | AC50 [5]: 5.8 µM [falling, full curve] | viability change [5]: -82.5%

N=C(N)c1ccc(OCCCCCOc2ccc(C(=N)N)cc2)cc1 (tested in a mixture with another compound)
AC50 ([1]; measured here: GFP channel): 2.51 µM [falling, partial curve] | max response [2, 13]: 54.8% | max response [2, 14]: 57.3% | AC50 [3, 17]: 37.9 µM [falling, full curve] | AC50 [3, 15]: 33.8 µM [falling, full curve]
